Results are given in words; binding and its absence hold for the method and conditions named. In cells and extracts the contact can be indirect. These calls come from enrichment with a bait or labelling near it, and not all partners need be listed.
Biological target: His6-tagged Connectase from M. mazei (wild type) (M. mazei)
Test: affinity purification with mass spectrometry

binding: binds
B1: methyltransferase A (MtrA) in whole cell extract (protein, UniProt P80184 1-238)
chain: MVEKKSPAEGWPVVNGDYIVGDPESPVAATTLASHIEDIPVEAGAAIAGPCKTENLGIEKMIANLISNPNIRFLILCGSEVQGHITGQSIEALHQNGVDPDKRNIIGATGAIPYIENIPDEGIERFQKQLEIVNLIDVEDADAIKAKVKECIEKDPGAFEEEAMIIKVEEGGEEEEGEEVKPVAPETALIEARMRNIQTQVKMIGSTNRMFAGMYSGKVQGIMIGLAFTLTLGILLLV

From doi:10.1101/2020.08.14.217505
